# In paper PMC5996148:
# By UniProt entry, the sequences of proteins in these tests, tags left out. Where a name states a change or a piece, a line headed by the entry shows the natural chain unless it says otherwise.
# UniProt Q86X40: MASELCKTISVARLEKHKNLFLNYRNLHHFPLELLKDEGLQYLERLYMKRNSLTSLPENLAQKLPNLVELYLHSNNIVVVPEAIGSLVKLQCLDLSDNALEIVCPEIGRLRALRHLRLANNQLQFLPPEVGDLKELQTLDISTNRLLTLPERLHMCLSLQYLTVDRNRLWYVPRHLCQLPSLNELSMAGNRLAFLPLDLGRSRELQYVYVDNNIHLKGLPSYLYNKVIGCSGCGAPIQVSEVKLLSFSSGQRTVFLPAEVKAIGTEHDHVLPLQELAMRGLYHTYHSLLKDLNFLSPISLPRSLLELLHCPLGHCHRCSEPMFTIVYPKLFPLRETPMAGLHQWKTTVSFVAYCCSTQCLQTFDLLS
# UniProt Q3MHD2: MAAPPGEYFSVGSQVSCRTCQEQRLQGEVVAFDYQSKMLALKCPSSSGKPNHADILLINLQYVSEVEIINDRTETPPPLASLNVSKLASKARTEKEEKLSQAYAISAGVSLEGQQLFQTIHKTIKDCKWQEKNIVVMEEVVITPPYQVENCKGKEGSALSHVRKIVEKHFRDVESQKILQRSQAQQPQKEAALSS
# Several values for one entry are separate records, joined by “and”; a condition that tells them apart may be missing. Equal values may be shown once. This is one part of the list. For some of these results: The exact form of the protein is not confirmed.
# Legend:
# Experiment in all cases: protein microarray (ProtoArray v5.0), streptavidin-Alexa Fluor 647
# Details in all cases: 3'-biotin; 20 mM Tris (pH 7.5), 5 mM MgCl2, 100 mM KCl, 0.1% Tween-20, A/T-rich and random oligonucleotide blockers; temperature not stated; high values mean tight binding
# LRBA (human) = tested on: LRBA (human)
# LRP10 (human) = tested on: LRP10 (human)
# LRRC1 (human) = tested on: LRRC1 (human)
# LRRC14 (human) = tested on: LRRC14 (human)
# LRRC28 = LRRC28 (UniProt Q86X40)
# LRRC32 (human) = tested on: LRRC32 (human)
# LRRC3B (human) = tested on: LRRC3B (human)
# LRRIQ2 (human) = tested on: LRRIQ2 (human)
# LSM12 = LSM12 (UniProt Q3MHD2)
# LSM14B (human) = tested on: LSM14B (human)
sequence,measurement,setting,value
GGGAGGCTGAGGCAGG [G4-1 biotinylated (PQS2)],binding signal,LRBA (human),-0.299 z-score and -0.289 z-score
same,binding signal,LRP10 (human),-0.328 z-score
same,binding signal,LRRC1 (human),-0.324 z-score
same,binding signal,LRRC14 (human),-0.315 z-score
same,binding signal,LRRC28,-0.297 z-score
same,binding signal,LRRC32 (human),-0.31 z-score
same,binding signal,LRRC3B (human),-0.315 z-score
same,binding signal,LRRIQ2 (human),-0.33 z-score
same,binding signal,LSM12,-0.307 z-score
same,binding signal,LSM14B (human),-0.307 z-score

# Pulled one by one from the list above:
sequence,measurement,setting,value
GGGAGGCTGAGGCAGG [G4-1 biotinylated (PQS2)],binding signal,LRP10 (human),-0.328 z-score
same,binding signal,LRRC14 (human),-0.315 z-score
